Our source for the binding values is doi:10.1101/2025.05.25.656038.

Amino acid sequences for entries named in this document (tags omitted). A change or cut given only in a name is not applied to a line headed by its entry.
UniProt P12956: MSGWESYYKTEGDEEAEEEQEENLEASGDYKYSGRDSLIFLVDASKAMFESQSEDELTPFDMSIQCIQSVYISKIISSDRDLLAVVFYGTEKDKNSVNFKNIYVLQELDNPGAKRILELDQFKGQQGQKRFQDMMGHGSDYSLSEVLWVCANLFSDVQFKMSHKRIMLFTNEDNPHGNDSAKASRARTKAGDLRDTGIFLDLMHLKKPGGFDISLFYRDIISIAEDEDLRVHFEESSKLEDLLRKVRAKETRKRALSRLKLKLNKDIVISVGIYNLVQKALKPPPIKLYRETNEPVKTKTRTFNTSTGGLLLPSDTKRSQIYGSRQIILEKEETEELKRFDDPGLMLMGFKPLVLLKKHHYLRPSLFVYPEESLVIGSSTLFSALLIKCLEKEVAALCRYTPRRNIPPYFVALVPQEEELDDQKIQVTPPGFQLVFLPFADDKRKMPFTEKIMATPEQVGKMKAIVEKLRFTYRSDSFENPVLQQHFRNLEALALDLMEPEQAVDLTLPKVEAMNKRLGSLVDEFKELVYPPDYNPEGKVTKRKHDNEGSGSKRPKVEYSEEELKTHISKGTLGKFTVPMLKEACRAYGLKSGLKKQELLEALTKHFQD

This test deals with short-range (SR) synaptic complex (Ku70/80, XLF, and XRCC4-LigIV) assembled on DNA (UniProt P12956). Kind of test: pull-down.

No constants are given. Whether binding was seen depends on the method and setting. Some binding calls cover weakened binding; strength is not graded here.

On to “Polynucleotide kinase-phosphatase (PNKP) (from UniProt Q96T60 1-521) (enzyme)”, for which the binding result is “binds”.
